# Results published in the supplement of paper PMC10338343.
# ± gives the standard deviation. The list shows a part of the results. Many entries were measured with a wide error.
# System: EfPiwi piRISC loaded with L1MC piRNA (26 nt)
# Experiment: pre-steady-state target cleavage rate (min^-1); guide: L1MC piRNA 5'p-UAACUAAAUACUAUGCAAGCUGUAGG; MIWI and MILI are mouse PIWI proteins and EfPiwi is from a freshwater sponge; tags in brackets are library labels; higher = faster piRNA-guided slicing of the target
# Conditions: auxiliary factor: 500 nM Ephydatia muelleri Gtsf1
# Description: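 Cleave-'n-Seq: a library of target RNAs (target site in constant flanks) at […] was incubated with 1 nM active freshwater sponge Ephydatia fluviatilis Piwi piRISC (synthetic 5'-monophosphorylated piRNA guide) with or without 500 nM EmGtsf1 at 33 °C for 1 min to 16 h. Uncleaved targets were sequenced and the pooled three trials fitted to a burst-and-steady-state model to give the pre-steady-state cleavage rate (min^-1). Sequence is the target site only. Fits with R² ≤ 0 are excluded.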
row,Sequence,pre-steady-state target cleavage rate
1,UCCUGGAACAGCUUGACAUAGUAUUUAGUUA,0.013 ± 0.004
2,UCCUGGUACAGCUUUGCAUAGUAUUUAGUUA,0.00974 ± 0.0035
3,UCCUGGAUGUCGAAGCAUAGUACUUAGUUA,0.000285 ± 0.016
4,UCCUGGAUGUCGAACGUUAGUCAUUUAGUUA,0.000243 ± 0.021
5,UCCUGGAUCAGCUUGCAUAGUAUUUUGAUA,0.00716 ± 0.003
6,UCCUGCUACACCUUGCAUAGAAUUUAGUUA,0.00207 ± 0.0023
7,UCCUCCUACAGCUUGCAAUCUAUUUAGAAA,0.00122 ± 0.0065
8,UCCUGGAUGUCGAACCAUAGUAUUUCGUUA,< 0.0001
9,UCCUGGAUGACGAUGCAUAGUAUUUAGUUA,0.00546 ± 0.0027
10,UCCUGGAUGUCCUAGCAUAGUAUUUACUUA,0.000371 ± 0.0079
11,UCCUGGAACACGUUGCAUAGUAUUUACAAA,0.000348 ± 0.02
12,UCCUGGAUGAGGCUUGCAUAGUAUUUAGUUA,0.0185 ± 0.0065
13,UCCUGGAACAGGAAGCAUAGUAUUUACAAA,0.000362 ± 0.011
14,UCCUGGUAAAGCUUGCAUAGUAUUUAGUUA,0.00606 ± 0.002
15,UCCUGGUACUGCUUGCAUACUAUUUAGUUA,0.00259 ± 0.0026
16,UCCUCCUACUGCUUGCAUAGAAUUUAGUUA,0.00761 ± 0.0021
17,UCCUGGAUGUCCUUGCAUAGUAUAUUAGUUA,0.00281 ± 0.0034
18,UCCUGGAUCAGCUUGGAUAGUAUUUAGAUA,0.00149 ± 0.0029
19,UCCUGGAUCAGCUUGGAUAGUUUUUAGUUA,0.000919 ± 0.0045
20,UCCUGGAUGUCGAACCUUAGUAAUUAGUUA,0.000389 ± 0.01
21,UCCUGGAACGCUUGCAUAGUAUUUAGUUA,0.0259 ± 0.0076
22,UCCUGGAUGAGCUUGCAUAGUUUAUAGUUA,0.000576 ± 0.0056
23,UCCUGGAUGUGCUAGCAUAGUAUAUAGUUA,0.000443 ± 0.0094
24,UCCUGGUACAGCUUGCAUAGUAAAUUCAAA,0.0008 ± 0.011
25,UCCUGGUACAGCUUGCAUAGAUAUUAGUAA,0.000327 ± 0.027
26,UCCUGGUACAGCUACCAUAGUAUUUAGUAA,0.00114 ± 0.0042
27,UCCUGGAUGACGAUGCAUAGUAUUUAGAAA,0.00171 ± 0.0043

# Same assay, conditions: auxiliary factor: none (no Gtsf1)
row,Sequence,pre-steady-state target cleavage rate
1,UCCUGGAUGUCGAAGCAUAGUACUUAGUUA,0.000762 ± 0.0098
2,UCCUCCUACAGCUUCGUUAGUAUUUAGUAA,0.000406 ± 0.01
3,UCCUGGAUCAGCUUGCAUAGUAUUUUGAUA,0.000522 ± 0.018
4,UCCUGCUACACCUUGCAUAGAAUUUAGUUA,0.000406 ± 0.016
5,UCCUCCUACAGCUUGCAAUCUAUUUAGAAA,0.000217 ± 0.015
6,UCCUGGAUGACGAUGCAUAGUAUUUAGUUA,0.00153 ± 0.007
7,UCCUGGAUGUCCUAGCAUAGUAUUUACUUA,0.000404 ± 0.021
8,UCCUGGAACACGUUGCAUAGUAUUUACAAA,0.000109 ± 0.03
9,UCCUGGAUGAGGCUUGCAUAGUAUUUAGUUA,0.000901 ± 0.011
10,UCCUGGUAAAGCUUGCAUAGUAUUUAGUUA,0.000716 ± 0.015
11,UCCUGGAUGAGCUUGCAUAGUUUAUAGUUA,0.000466 ± 0.017
12,UCCUGGAUGUGCUAGCAUAGUAUAUAGUUA,0.000271 ± 0.028
13,UCCUGGUACAGCUUGCAUAGUAAAUUCAAA,0.000636 ± 0.021
14,UCCUGGAUGACGAUGCAUAGUAUUUAGAAA,0.000551 ± 0.015
